# Laboratory results as given in PubChem BioAssay AID651640 (Broad Institute, 2012).
# Several values for one entry are separate records, joined by “and”; a condition that tells them apart may be missing. Equal values may be shown once. The whole screen tested about 350,000 compounds, of which about 6,000 (1.7%) were called active. Inconclusive results, whose numbers are uncertain, are shown with a selection of clear calls. Rule as the data show it: active = CPE inhibition above about 20% (passing the limit was not always enough); inconclusive = no clear call, values can overlap the other calls; tested in BHK-21 cells. More than one record can exist for a structure, and the calls need not agree.
# Assay: protection of cells from dengue 2 killing – plate reader, single concentration, primary screen (AID 651640);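 also: 0% = median of neutral control wells and 100% = median of positive control wells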
# Settings: DENV2-infected cells, cytopathic effect rescue, at 9.99 µM, stronger effect = higher value
row,Compound,CPE inhibition
1,O=C(CCCCCCCC(=O)c1ccccc1)c1ccccc1,inactive: 4.8%
2,CCC(=O)Nc1ccc2c(c1)C(=O)N(C)C[C@H](OC)[C@@H](C)CN(C(=O)c1ccc(F)cc1)[C@@H](C)CO2,inactive: 15.4%
3,COc1ccc(NC(=O)Nc2ccc3c(c2)C(=O)N([C@@H](C)CO)C[C@@H](C)[C@H](CN(C)C(=O)Nc2ccc(C(F)(F)F)cc2)OCCCC[C@H](C)O3)cc1,inconclusive: 35.3%
4,COc1ccccc1C(=O)NC(=O)COC(=O)CCOc1ccccc1C,inconclusive: 59%
5,Cc1noc(C)c1NC(=O)N(C)C[C@@H]1Oc2cc(C#CCC3CCCC3)ccc2S(=O)(=O)N([C@H](C)CO)C[C@@H]1C,inactive: 1.72%
6,CC(=O)c1ccc(-n2ccnc2)cc1,inconclusive: 22%
7,Cc1ccc2nc(C)cc(Nc3ccc([N+](=O)[O-])cc3)c2c1,inactive: 8.02%
8,CC1CCN(S(=O)(=O)c2ccc3c(ccn3CCC(=O)NC(C)C)c2)CC1,inconclusive: 42.3%
9,CN1C(=O)c2cc(NC(=O)c3cccc(F)c3)ccc2OC[C@H]2O[C@H](CC(=O)Nc3ccccc3)CC[C@@H]21,inactive: 0.998%
10,CO[C@H]1CN(C)C(=O)c2cc(NC(=O)C3CC3)ccc2OC[C@@H](C)N(Cc2cccnc2)C[C@H]1C,inconclusive: 24.1%
11,O=C(NCCc1cn2ccsc2n1)C1CCCCC1,inconclusive: 21.5%
12,CN(C)C(=O)C[C@H]1C=C[C@@H](NC(=O)NC2CCCC2)[C@@H](CO)O1,inconclusive: 39.1%
13,C[C@@H]1CN([C@@H](C)CO)C(=O)c2cc(NC(=O)Nc3ccc4c(c3)OCO4)ccc2O[C@H]1CN(C)C(=O)Nc1ccc(F)cc1,inconclusive: 62.7%
14,C[C@@H](CN1C2=NC[C@@H](Cc3ccccc3)N2C[C@H]1Cc1ccc(O)cc1)NC(=O)CCC1CCCCC1,inconclusive: 41.8%
15,CC(C)NC(=O)Nc1ccc2c(c1)CC(=O)N([C@@H](C)CO)C[C@@H](C)[C@@H](CN(C)Cc1ccc(C(=O)Nc3ccccc3N)cc1)O2,inactive: 11.5%
16,Cc1ccc(S(=O)(=O)N[C@H]2CC[C@@H](CCNC(=O)C3CCOCC3)O[C@H]2CO)cc1,active: 22.1%
17,CN(CC(=O)Nc1ccccc1Cl)C(=O)COC(=O)c1cccs1,active: 56.7%
18,Cc1ccccc1N=C/C=C1/C=C(c2ccccc2)OC(C)(C)O1,inconclusive: 47.1%
19,Cc1cc(C)cc(NC(=O)c2ccc(S(=O)(=O)N(C)CC3CCCO3)cc2)c1 (centres undefined),inconclusive: 34.4%
20,C[C@@H](NC(=O)C[C@@H]1C[C@@H]2c3cc(NS(C)(=O)=O)ccc3O[C@@H]2[C@@H](CO)O1)c1ccccc1,inactive: 12.3%
21,COc1ccc2c3c(n(C)c2c1)[C@H](CO)N(Cc1ccccc1F)CC31CCN(C(C)=O)CC1,active: 93.3%
22,CC(C)C[C@@H](CN1CCC[C@@H]1CN1C(=S)NC[C@@H]1Cc1ccc(O)cc1)N1C[C@H](Cc2ccc(O)cc2)N(CC2CCCCC2)C1=S,active: 27.9%

row,Compound,CPE inhibition
1,C[C@@H]1CN([C@H](C)CO)C(=O)c2cc(NC(=O)Nc3ccc(C(F)(F)F)cc3)ccc2O[C@@H](C)CCCCO[C@@H]1CN(C)S(=O)(=O)c1ccc(F)cc1,inactive: -1.03%
2,COc1cc(/C=C2\C(=N)N3N=C(S(C)(=O)=O)SC3=NC2=O)ccc1OS(=O)(=O)c1ccc(C)cc1,inconclusive: 26.4%
3,C[C@H](CO)N1C[C@H](C)[C@@H](CN(C)S(=O)(=O)c2ccccc2)Oc2ccc(NC(=O)Nc3ccc(F)cc3)cc2C1=O,inconclusive: 21.3%
4,CCOC(=O)C1(C)CCCCCN1C(=O)c1ccc(SC(F)(F)F)cc1 (centres undefined),inconclusive: 20.2%
5,CC1(C)Oc2ccc3ccc(=O)oc3c2C(/C=N/O)=C1Cl,inconclusive: 52.9%
6,COc1ccc2c3c(n(C)c2c1)[C@@H](CO)N(C(=O)Cc1ccccc1)CC31CN(C)C1,inactive: -0.143%
7,C[C@@H]1CCCCO[C@H](CN(C)Cc2ccc(C(=O)O)cc2)[C@H](C)CN([C@@H](C)CO)C(=O)c2cc(NC(=O)Nc3ccc(C(F)(F)F)cc3)ccc2O1,active: 40.8% and inactive: -2.94%
8,CN(CC(=O)Nc1ccc(Cl)c(C(F)(F)F)c1)C(=O)CCCc1nc2ccccc2c(=O)[nH]1,inconclusive: 52.2%
9,COC(=O)CCN(c1ccccc1)S(=O)(=O)c1cc(-c2cc(C)no2)ccc1OC,inconclusive: 43.8%
10,COc1ccc(S(=O)(=O)Nc2ccc3c(c2)C(=O)N([C@@H](C)CO)C[C@@H](C)[C@H](CN(C)S(=O)(=O)c2ccc(C)cc2)OCCCC[C@@H](C)O3)cc1,inconclusive: 36%
11,CNC(=O)/C=C/c1cccc(C(F)(F)F)c1,inconclusive: 61.6%
12,COCC#Cc1cnc2c(c1)C(=O)N([C@H](C)CO)C[C@@H](C)[C@@H](CN(C)C(=O)Nc1cc(F)ccc1F)O2,inactive: -3.55%
13,O=C1CN(Cc2ccc(F)cc2)C[C@@H]2[C@H](c3ccc(-c4ccccc4F)cc3)[C@H](CO)N12,inconclusive: 23%
14,COc1ccc(CN(C)C[C@@H]2Oc3c(NC(=O)c4ccc(-c5nccs5)cc4)cccc3C(=O)N([C@@H](C)CO)C[C@H]2C)cc1,inactive: 4.95%
15,Nn1c(SCC(=O)NCc2ccc3c(c2)OCO3)nnc1C(F)(F)F,inconclusive: 23.6%
16,CC(C)n1nnnc1C1c2ccccc2C(=O)N1Cc1cccc(F)c1 (centres undefined),inconclusive: 61.9%
17,O=C(C[C@@H]1C=C[C@H](NC(=O)C2CCOCC2)[C@@H](CO)O1)Nc1ccc(-c2ccccc2)cc1,inactive: 10.6%
18,CNC(=O)c1c(Br)cnn1-c1ccc(C)cc1,inconclusive: 26.1%
19,CS(=O)(=O)Cc1ccc(C(=O)N(CCc2ccccc2)Cc2ccccc2)cc1,inconclusive: 32.1%
20,Cc1ccc2c(c1)sc(C)[n+]2CCCS(=O)(=O)[O-],inactive: -0.625%
21,COc1ccc(OC)c(C(=O)c2coc3ccc(O)c(CN(C)C)c23)c1,inconclusive: 56%
22,C[C@@H](NC(=O)C[C@H]1C=C[C@@H](NC(=O)C2CCC2)[C@H](CO)O1)c1ccccc1,inactive: -5.49%

# 2 records picked at random from those above:
row,Compound,CPE inhibition
6,COc1ccc2c3c(n(C)c2c1)[C@@H](CO)N(C(=O)Cc1ccccc1)CC31CN(C)C1,inactive: -0.143%
16,CC(C)n1nnnc1C1c2ccccc2C(=O)N1Cc1cccc(F)c1 (centres undefined),inconclusive: 61.9%
